# Experimental data: PubChem BioAssay AID743336 (Broad Institute, 2014)
# Inconclusive means that the source gave no clear call. Such entries were picked first, then a sample of the others. Active and inactive are the calls of the source.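 Rule for the calls: active = fitted curve of rescue activity rises past 40% within the tested concentration range, in every replicate run; inconclusive = replicate runs disagree, some active and some not; inactive = all replicate runs inactive, including effects in the opposite direction.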
# Assay: rescue of simvastatin myotoxicity in C2C12 – cell-based, differentiated C2C12, luminescence, dry powder, dose response (AID 743336)
# Conditions: C2C12 myotubes + simvastatin, ATP luminescence, 48 h; at 19.5 µM (top of the series) unless noted
row,SMILES,rescue activity
1,C[C@@H]1CN([C@@H](C)CO)C(=O)c2cc(NC(=O)Cc3cn(C)c4ccccc34)ccc2O[C@@H]1CN(C)Cc1ccc(C(=O)Nc2ccccc2N)cc1,inconclusive: 47.9% [at 16 µM]
2,C[C@H](CO)N1C[C@H](C)[C@@H](CN(C)Cc2ccc(Cl)c(Cl)c2)Oc2ccc(NC(=O)C3CC3)cc2CC1=O,inconclusive: 46.6%
3,C[C@H]1CN([C@@H](C)CO)C(=O)Cc2cc(NS(=O)(=O)c3ccc(Cl)cc3)ccc2O[C@@H]1CN(C)CC1CCCCC1,inactive: 3.09% [at 21 µM]
4,CCCNC(=O)N1[C@H](CO)[C@H](c2ccccc2)[C@@H]1C#N,inactive: -1.71%
5,C[C@H]1CN([C@@H](C)CO)C(=O)Cc2cc(NC(=O)CCCCCC(=O)Nc3ccccc3N)ccc2O[C@H]1CN(C)Cc1ccc(Oc2ccccc2)cc1,inconclusive: 51.9% [at 21 µM]
6,C[C@H](CO)N1C[C@H](C)[C@@H](CN(C)Cc2ccc(C(=O)Nc3ccccc3N)cc2)Oc2ccc(NC(=O)Cc3cn(C)c4ccccc34)cc2C1=O,inconclusive: 11.1%
7,C[C@H](CO)N1C[C@H](C)[C@H](CN(C)Cc2ccc3c(c2)OCO3)Oc2ccc(NC(=O)CCCCCC(=O)Nc3ccccc3N)cc2CC1=O,inactive: 27.2% [at 18 µM]
8,C[C@H]1CN([C@@H](C)CO)C(=O)Cc2cc(NC(=O)CCCCCC(=O)Nc3ccccc3N)ccc2O[C@H]1CN(C)Cc1ccc(C(F)(F)F)cc1,inactive: 44.5% [at 21 µM]
9,COc1ccc(CN(C)C[C@H]2Oc3ccc(NS(=O)(=O)c4ccc(Cl)cc4)cc3CC(=O)N([C@@H](C)CO)C[C@@H]2C)cc1,inconclusive: 35.3%
10,C[C@@H]1CN([C@H](C)CO)C(=O)c2cc(NC(=O)Cc3cn(C)c4ccccc34)ccc2O[C@H]1CN(C)Cc1ccc(C(=O)Nc2ccccc2N)cc1,inconclusive: 42.9%
11,COc1ccc(S(=O)(=O)Nc2ccc3c(c2)CC(=O)N([C@H](C)CO)C[C@H](C)[C@@H](CN(C)Cc2ccc(Cl)c(Cl)c2)O3)cc1,inconclusive: 34.6%
12,C[C@H]1CN([C@@H](C)CO)C(=O)c2cc(NC(=O)Cc3cn(C)c4ccccc34)ccc2O[C@H]1CN(C)Cc1ccc(C(=O)Nc2ccccc2N)cc1,inconclusive: 52.9%
13,C[C@H](CO)N1C[C@H](C)[C@H](CN(C)Cc2ccc(C(=O)Nc3ccccc3N)cc2)Oc2ccc(NC(=O)Cc3cn(C)c4ccccc34)cc2C1=O,inconclusive: 28%
14,C[C@@H]1CN([C@H](C)CO)C(=O)c2cc(NC(=O)Cc3cn(C)c4ccccc34)ccc2O[C@@H]1CN(C)Cc1ccc(C(=O)Nc2ccccc2N)cc1,inconclusive: 47.8%
15,COc1ccc(C#Cc2cnc3c(c2)C(=O)N([C@H](C)CO)C[C@H](C)[C@@H](CN(C)C(=O)Nc2cccc(OC)c2)O3)cc1,inconclusive: 42%
16,CCCC#Cc1ccc([C@H]2[C@@H](C#N)N(S(=O)(=O)c3cccc(F)c3)[C@H]2CO)cc1,inactive: 3.48%
17,C[C@@H]1CN([C@H](C)CO)C(=O)Cc2cc(NS(=O)(=O)c3cn(C)cn3)ccc2O[C@@H]1CN(C)Cc1ccc(Cl)c(Cl)c1,inactive: 34.3%
18,N#C[C@@H]1[C@@H](c2ccc(-c3cccc(F)c3)cc2)[C@H](CO)N1C(=O)NC1CCCC1,inconclusive: 93.9% [at 21 µM]
19,COc1ccc(S(=O)(=O)Nc2ccc3c(c2)CC(=O)N([C@H](C)CO)C[C@@H](C)[C@H](CN(C)CC2CCCCC2)O3)cc1,inconclusive: 50.3%
20,N#C[C@H]1[C@H](c2ccc(-c3cccc(F)c3)cc2)[C@H](CO)N1C(=O)NC1CCCC1,inactive: 29.9%

# 5 compounds already listed, arranged by length of the SMILES, low to high:
row,SMILES,rescue activity
4,CCCNC(=O)N1[C@H](CO)[C@H](c2ccccc2)[C@@H]1C#N,inactive: -1.71%
18,N#C[C@@H]1[C@@H](c2ccc(-c3cccc(F)c3)cc2)[C@H](CO)N1C(=O)NC1CCCC1,inconclusive: 93.9% [at 21 µM]
2,C[C@H](CO)N1C[C@H](C)[C@@H](CN(C)Cc2ccc(Cl)c(Cl)c2)Oc2ccc(NC(=O)C3CC3)cc2CC1=O,inconclusive: 46.6%
10,C[C@@H]1CN([C@H](C)CO)C(=O)c2cc(NC(=O)Cc3cn(C)c4ccccc34)ccc2O[C@H]1CN(C)Cc1ccc(C(=O)Nc2ccccc2N)cc1,inconclusive: 42.9%
14,C[C@@H]1CN([C@H](C)CO)C(=O)c2cc(NC(=O)Cc3cn(C)c4ccccc34)ccc2O[C@@H]1CN(C)Cc1ccc(C(=O)Nc2ccccc2N)cc1,inconclusive: 47.8%
